# Test results taken from the supplement of paper PMC12067093, “Discovery and optimisation of a covalent ligand for TRIM25 and its application to targeted protein ubiquitination” (Chemical Science, 2025).
# Protein sequences, listed by entry. Tags and fused reporters are not part of them. Lines headed by an entry give the natural chain unless they say otherwise; changes in a name come on top.
# UniProt Q9UJU6: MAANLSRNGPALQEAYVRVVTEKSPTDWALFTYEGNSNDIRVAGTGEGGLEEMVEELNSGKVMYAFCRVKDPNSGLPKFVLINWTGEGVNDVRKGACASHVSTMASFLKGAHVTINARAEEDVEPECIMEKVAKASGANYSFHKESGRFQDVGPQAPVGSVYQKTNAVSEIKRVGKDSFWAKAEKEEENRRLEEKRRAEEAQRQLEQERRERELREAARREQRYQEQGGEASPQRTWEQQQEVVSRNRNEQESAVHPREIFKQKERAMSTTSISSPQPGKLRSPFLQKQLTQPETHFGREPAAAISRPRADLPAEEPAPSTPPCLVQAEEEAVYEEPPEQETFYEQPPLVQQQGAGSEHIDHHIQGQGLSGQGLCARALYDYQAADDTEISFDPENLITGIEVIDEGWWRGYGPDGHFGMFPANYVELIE
# UniProt Q9P0U4, whole entry, looked up: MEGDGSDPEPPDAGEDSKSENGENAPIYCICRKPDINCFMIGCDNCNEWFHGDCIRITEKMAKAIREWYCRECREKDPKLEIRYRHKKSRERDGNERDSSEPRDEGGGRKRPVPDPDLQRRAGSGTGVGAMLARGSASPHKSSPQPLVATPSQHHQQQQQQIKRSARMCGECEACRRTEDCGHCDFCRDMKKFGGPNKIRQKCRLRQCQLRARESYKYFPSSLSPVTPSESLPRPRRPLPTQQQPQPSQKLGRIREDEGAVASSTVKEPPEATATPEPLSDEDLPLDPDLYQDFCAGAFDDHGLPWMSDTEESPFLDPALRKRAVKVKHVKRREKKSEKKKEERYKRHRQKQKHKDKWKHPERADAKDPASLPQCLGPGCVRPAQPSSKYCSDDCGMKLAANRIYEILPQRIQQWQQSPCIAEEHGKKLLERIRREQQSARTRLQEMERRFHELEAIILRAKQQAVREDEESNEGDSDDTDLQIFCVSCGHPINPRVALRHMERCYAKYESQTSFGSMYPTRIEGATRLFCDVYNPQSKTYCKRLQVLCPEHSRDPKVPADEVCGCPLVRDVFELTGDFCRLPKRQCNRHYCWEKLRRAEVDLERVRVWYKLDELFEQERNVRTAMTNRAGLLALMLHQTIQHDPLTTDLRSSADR
# UniProt Q9NQC7: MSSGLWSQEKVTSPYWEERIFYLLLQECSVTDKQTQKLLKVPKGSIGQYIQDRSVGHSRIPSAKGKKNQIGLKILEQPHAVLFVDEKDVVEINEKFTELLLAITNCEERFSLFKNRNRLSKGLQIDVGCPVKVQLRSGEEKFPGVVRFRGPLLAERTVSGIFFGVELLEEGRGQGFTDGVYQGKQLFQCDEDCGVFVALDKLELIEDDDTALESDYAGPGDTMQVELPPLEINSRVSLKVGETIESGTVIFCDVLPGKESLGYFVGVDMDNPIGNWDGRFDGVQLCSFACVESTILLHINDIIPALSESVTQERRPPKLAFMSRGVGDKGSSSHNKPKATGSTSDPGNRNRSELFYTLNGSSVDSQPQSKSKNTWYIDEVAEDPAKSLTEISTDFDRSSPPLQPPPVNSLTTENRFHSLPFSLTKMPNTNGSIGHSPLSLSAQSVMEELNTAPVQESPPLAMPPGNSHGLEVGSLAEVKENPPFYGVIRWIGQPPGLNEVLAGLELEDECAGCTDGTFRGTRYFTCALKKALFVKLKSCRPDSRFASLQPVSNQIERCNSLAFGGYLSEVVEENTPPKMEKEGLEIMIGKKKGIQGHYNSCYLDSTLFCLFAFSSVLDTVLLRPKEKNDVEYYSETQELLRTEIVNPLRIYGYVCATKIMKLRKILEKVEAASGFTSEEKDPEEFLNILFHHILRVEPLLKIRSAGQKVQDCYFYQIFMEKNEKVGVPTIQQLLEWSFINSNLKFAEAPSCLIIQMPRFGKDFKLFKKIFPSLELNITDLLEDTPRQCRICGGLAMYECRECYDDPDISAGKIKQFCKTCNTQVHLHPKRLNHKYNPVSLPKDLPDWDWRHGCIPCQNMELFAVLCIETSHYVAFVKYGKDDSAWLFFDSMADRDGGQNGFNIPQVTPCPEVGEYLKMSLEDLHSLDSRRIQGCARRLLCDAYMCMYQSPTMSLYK
# UniProt Q14203, whole entry, looked up: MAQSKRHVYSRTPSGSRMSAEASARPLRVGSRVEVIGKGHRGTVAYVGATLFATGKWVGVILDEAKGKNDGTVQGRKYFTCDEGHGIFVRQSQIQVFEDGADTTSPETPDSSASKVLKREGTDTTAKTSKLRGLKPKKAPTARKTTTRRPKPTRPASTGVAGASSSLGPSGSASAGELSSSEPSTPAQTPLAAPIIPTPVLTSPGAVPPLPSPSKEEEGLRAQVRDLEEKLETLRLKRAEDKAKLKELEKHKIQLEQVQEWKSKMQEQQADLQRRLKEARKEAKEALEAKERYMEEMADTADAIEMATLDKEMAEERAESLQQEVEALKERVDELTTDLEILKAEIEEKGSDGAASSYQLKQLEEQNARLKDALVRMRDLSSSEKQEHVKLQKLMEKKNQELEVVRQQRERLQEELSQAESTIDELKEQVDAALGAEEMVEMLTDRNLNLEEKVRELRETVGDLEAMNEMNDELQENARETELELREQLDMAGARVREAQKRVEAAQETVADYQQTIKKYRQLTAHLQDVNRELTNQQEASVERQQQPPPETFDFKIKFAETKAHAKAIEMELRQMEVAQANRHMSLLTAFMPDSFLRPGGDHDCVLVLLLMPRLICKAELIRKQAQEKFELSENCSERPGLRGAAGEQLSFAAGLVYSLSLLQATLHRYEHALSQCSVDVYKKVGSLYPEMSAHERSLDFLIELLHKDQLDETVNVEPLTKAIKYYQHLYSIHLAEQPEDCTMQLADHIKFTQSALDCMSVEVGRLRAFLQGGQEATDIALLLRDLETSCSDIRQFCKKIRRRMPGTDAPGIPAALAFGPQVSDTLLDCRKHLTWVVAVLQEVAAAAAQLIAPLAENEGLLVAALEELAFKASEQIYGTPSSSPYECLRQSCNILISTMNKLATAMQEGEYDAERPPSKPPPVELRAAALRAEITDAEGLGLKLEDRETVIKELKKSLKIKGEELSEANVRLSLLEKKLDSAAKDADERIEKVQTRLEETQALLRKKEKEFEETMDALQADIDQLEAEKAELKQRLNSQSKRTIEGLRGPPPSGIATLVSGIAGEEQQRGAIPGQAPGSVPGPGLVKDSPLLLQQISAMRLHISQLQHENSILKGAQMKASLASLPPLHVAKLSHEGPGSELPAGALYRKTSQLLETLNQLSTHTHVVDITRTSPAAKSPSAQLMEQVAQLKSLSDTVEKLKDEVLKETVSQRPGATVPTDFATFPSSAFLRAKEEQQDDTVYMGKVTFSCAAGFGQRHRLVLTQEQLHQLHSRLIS
# UniProt Q9UK59: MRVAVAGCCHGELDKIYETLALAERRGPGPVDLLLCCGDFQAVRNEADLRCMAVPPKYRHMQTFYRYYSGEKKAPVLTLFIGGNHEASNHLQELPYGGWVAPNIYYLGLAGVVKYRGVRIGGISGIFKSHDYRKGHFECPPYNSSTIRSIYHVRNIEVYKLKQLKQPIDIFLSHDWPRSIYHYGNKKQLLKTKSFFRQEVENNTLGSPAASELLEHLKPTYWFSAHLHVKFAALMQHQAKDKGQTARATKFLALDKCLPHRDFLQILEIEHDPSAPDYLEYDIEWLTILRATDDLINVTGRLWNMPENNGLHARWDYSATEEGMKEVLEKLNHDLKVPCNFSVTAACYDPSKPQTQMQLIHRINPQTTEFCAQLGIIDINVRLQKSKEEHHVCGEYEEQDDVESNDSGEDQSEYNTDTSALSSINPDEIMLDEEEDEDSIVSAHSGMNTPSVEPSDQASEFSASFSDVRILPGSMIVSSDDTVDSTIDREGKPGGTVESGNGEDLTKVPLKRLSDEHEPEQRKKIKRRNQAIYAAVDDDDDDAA
# UniProt Q7L576: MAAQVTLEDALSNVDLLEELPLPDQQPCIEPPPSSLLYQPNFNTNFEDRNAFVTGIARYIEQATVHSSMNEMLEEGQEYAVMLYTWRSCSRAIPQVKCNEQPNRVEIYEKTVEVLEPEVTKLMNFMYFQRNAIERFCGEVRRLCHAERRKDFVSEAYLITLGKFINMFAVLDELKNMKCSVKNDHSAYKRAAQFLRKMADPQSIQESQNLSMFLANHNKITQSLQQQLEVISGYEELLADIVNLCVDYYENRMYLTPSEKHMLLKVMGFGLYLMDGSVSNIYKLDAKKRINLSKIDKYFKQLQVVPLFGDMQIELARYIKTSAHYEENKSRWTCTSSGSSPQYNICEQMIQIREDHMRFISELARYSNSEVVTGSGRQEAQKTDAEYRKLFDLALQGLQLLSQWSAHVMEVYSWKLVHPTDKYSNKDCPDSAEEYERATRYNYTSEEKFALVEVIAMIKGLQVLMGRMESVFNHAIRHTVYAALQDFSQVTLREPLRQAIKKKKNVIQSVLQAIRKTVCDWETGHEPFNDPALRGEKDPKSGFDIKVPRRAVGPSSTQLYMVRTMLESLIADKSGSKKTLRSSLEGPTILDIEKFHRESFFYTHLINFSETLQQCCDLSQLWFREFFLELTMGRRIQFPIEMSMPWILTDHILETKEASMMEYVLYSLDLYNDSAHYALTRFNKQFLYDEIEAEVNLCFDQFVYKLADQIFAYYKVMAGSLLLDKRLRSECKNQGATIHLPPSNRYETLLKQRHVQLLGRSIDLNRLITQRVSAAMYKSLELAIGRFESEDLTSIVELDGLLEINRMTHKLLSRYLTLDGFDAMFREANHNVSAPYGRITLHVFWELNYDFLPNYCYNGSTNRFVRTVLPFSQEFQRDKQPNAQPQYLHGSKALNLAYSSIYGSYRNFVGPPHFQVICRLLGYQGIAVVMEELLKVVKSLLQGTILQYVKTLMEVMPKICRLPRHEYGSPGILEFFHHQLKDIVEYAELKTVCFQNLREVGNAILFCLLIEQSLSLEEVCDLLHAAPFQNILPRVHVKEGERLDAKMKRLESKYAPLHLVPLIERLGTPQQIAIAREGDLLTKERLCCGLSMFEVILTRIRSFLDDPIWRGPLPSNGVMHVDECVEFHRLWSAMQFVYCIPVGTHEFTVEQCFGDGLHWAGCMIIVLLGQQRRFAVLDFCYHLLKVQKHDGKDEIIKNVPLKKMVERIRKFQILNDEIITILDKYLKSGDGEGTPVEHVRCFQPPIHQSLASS
# UniProt P14868: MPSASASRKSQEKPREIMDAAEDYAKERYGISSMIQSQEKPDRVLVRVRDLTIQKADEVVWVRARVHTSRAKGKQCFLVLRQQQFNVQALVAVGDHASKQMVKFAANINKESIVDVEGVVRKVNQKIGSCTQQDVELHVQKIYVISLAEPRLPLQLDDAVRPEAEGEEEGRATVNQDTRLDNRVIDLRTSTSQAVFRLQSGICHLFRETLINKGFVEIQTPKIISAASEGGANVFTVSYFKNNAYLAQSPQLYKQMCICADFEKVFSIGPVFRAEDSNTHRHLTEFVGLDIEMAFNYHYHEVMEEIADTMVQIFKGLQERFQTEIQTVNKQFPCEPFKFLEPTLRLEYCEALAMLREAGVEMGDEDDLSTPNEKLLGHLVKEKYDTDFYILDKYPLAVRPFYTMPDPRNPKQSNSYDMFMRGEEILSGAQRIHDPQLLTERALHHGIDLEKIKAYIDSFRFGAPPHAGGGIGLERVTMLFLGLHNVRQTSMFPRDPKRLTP
# UniProt Q8WV16: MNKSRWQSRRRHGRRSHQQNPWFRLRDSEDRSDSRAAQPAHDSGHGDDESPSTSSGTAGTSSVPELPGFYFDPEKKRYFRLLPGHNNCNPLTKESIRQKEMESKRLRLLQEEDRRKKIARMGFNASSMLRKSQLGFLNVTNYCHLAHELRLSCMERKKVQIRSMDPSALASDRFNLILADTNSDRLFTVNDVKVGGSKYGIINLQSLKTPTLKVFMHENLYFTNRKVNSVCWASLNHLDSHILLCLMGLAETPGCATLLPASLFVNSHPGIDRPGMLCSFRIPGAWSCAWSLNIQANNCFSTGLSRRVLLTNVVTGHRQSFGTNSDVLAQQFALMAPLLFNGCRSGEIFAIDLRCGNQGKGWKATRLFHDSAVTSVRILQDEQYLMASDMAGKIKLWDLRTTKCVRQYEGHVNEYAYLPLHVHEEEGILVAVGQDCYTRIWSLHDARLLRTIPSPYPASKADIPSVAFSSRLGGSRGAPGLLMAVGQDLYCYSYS
# UniProt P53634: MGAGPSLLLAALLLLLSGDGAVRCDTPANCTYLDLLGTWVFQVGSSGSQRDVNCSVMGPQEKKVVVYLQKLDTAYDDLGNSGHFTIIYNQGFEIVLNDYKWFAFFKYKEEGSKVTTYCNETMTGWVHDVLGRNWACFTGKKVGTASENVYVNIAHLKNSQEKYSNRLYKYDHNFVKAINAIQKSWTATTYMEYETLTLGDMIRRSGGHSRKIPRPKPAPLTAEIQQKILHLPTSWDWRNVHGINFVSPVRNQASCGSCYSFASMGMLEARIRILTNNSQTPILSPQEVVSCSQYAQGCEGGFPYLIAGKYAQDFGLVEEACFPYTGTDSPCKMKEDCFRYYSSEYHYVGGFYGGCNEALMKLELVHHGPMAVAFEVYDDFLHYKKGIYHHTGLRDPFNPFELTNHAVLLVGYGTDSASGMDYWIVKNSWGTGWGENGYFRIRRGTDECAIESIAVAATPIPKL
# The other results are listed elsewhere or left out.
# Compound: Cc1cc(ccc1-c1ccccc1)C(=O)N1CCCN(CC1)C(=O)CCl [compound 10]
# Assay: probe-labelled cysteine peptide fold change vs DMSO (competition) (log2 fold change); higher = less target engagement (more negative = stronger competition)
# Settings: THP-1, incubation time: 4 h
# 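Also: competitive profiling in live THP-1 cells: cysteine peptides tagged with an iodoacetamide desthiobiotin (IA-DTB) probe, intensity after compound treatment relative to DMSO-treated cells.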
Target,probe-labelled cysteine peptide fold change (10 µM),probe-labelled cysteine peptide fold change (50 µM)
DBNL_Q9UJU6_127_AEEDVEPECIMEK (UniProt Q9UJU6),-0.0618,-0.108
CXXC1_Q9P0U4_175_MCGECEACR (UniProt Q9P0U4),-0.0641,-0.126
CYLD_Q9NQC7_106_FTELLLAITNCEER (UniProt Q9NQC7),-0.0716,-0.0759
DCTN1_Q14203_81_KYFTCDEGHGIFVR (UniProt Q14203),0.079,-0.325
DBR1_Q9UK59_347_VPCNFSVTAACYDPSKPQTQMQLIHR (UniProt Q9UK59),-0.109,-0.299
DBR1_Q9UK59_339+347_VPCNFSVTAACYDPSKPQTQMQLIHR (UniProt Q9UK59),-0.11,-0.187
CYFIP1_Q7L576_918_NFVGPPHFQVICR (UniProt Q7L576),0.098,0.223
DARS_P14868_259_QMCICADFEK (UniProt P14868),0.07,-0.051
CXXC1_Q9P0U4_181+187_RTEDCGHCDFCR (UniProt Q9P0U4),-0.0138,-0.748
DCAF4_Q8WV16_143_SQLGFLNVTNYCHLAHELR (UniProt Q8WV16),0.12,0.311
CTSC_P53634_448_GTDECAIESIAVAATPIPK (UniProt P53634),-0.0111,0.0568

# Taken from the listing for reference:
Target,probe-labelled cysteine peptide fold change (10 µM),probe-labelled cysteine peptide fold change (50 µM)
DCTN1_Q14203_81_KYFTCDEGHGIFVR (UniProt Q14203),0.079,-0.325
DBR1_Q9UK59_347_VPCNFSVTAACYDPSKPQTQMQLIHR (UniProt Q9UK59),-0.109,-0.299
